US20220119513A1

Assays:
TGFβ1 (R&D Systems) = test: SPR, TGFβ on chip
TGFβ2 (R&D Systems) = test: SPR, TGFβ on chip

| Binder | binding (TGFβ1 (R&D Systems)) | binding (TGFβ2 (R&D Systems)) |
| --- | --- | --- |
| 04H09 (mouse) (antibody, V domains shown) VH: QVQLQQSGAELVKPGASVKISCKASGYAFSSSWMNWVKQRPGKGLEWIGQIYPGDGDTNYNGKFKGKATLTADKSSSTAYMQLSSLTSEDSAVYFCARHYDGSTDYWGQGTTLTVSS VL: DIQMTQSPASLSVSVGETVTITCRASENIYSNLAWYQQKQGKSPQLLVYAATNLADGVPSRFSGSGSGTQYSLKINSLQSEDFGSYYCQHFWGTPYTFGGGTKLEIK | binds | binds |
| chi04H09 (mouse-dog) (antibody, V domains shown) VH: QVQLQQSGAELVKPGASVKISCKASGYAFSSSWMNWVKQRPGKGLEWIGQIYPGDGDTNYNGKFKGKATLTADKSSSTAYMQLSSLTSEDSAVYFCARHYDGSTDYWGQGTTLTVSS VL: DIQMTQSPASLSVSVGETVTITCRASENIYSNLAWYQQKQGKSPQLLVYAATNLADGVPSRFSGSGSGTQYSLKINSLQSEDFGSYYCQHFWGTPYTFGGGTKLEIKR | binds | binds |

No constants are given. Whether binding was seen depends on the method and setting. A result given as binding can be weak or reduced; the word gives no strength.
